Test results as given in PubChem BioAssay AID720711 (National Center for Advancing Translational Sciences (NCATS), 2013).
About 290 (0.081%) of roughly 360,000 compounds were called active. The inconclusive results got no clear call from the source; some entries with a clear call stand among them for comparison. Calls follow the shape of the dose curve; as a rule, active = well fitted activation curve with a large enough effect; inconclusive = small, poorly fitted or top-dose-only effect; inactive = no such curve, though single readings can be large or run the other way. Where the call is inconclusive, the potency comes from a doubtful curve fit.
Also: nearly all actives have a fitted effect of over 50% in size.
Potency is read from the fitted curve at half-maximal effect.

Sequences of proteins named here, by UniProt entry; tags and fusion partners are left off. A change or cut given only in a name is not applied to a line headed by its entry.
UniProt Q8WZA2: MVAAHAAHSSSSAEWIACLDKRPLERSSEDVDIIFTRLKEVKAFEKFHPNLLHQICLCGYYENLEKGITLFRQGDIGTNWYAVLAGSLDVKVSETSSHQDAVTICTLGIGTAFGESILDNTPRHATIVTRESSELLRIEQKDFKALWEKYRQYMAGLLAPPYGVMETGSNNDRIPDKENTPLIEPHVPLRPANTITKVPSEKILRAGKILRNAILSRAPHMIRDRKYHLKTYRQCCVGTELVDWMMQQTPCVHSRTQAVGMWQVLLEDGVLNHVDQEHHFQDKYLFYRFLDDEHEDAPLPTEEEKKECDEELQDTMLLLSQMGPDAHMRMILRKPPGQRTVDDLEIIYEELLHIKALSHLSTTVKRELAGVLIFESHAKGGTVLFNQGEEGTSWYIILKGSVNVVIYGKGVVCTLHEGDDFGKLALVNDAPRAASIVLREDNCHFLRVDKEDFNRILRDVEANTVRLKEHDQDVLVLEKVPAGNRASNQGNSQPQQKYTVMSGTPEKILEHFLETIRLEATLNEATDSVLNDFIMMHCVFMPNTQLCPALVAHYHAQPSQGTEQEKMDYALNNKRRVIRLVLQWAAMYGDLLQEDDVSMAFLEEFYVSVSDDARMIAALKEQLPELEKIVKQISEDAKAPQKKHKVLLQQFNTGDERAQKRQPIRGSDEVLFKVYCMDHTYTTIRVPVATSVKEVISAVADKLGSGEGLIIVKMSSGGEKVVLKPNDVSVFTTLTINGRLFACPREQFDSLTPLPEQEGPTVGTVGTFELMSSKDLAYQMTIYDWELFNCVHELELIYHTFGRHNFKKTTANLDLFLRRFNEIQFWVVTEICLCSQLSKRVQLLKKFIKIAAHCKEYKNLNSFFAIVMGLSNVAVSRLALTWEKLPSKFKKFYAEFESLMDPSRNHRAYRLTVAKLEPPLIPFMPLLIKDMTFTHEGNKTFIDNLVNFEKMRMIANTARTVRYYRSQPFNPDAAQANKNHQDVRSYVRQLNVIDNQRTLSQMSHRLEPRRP

These molecules were tested against Rap guanine nucleotide exchange factor 4 (Homo sapiens) (UniProt Q8WZA2) (assay: qHTS for Agonist of cAMP-regulated guanine nucleotide exchange factor 4 (EPAC2): primary screen). Conditions: biochemical qHTS; Potency: EPAC2 activation unless noted; activation: at 154 µM (top of the series), 100% = 6.5 mM cAMP response unless noted.
From the text: In multi-cellular eukaryotic organisms, the effects of cAMP are transduced by two ubiquitously-expressed intracellular cAMP receptors, the classic protein kinase A/cAMP-dependent protein kinase (PKA/cAPK) and the more recently discovered exchange protein directly activated by cAMP/cAMP-regulated guanine nucleotide exchange factor (EPAC/cAMP-GEF). Both PKA and EPAC are ubiquitously expressed in all tissues, and an increase in intracellular cAMP levels will lead to the activation of both PKA and EPAC. Therefore, careful dissections of the individual role and relative contribution of EPAC and PKA within the overall cAMP signaling in various model systems are critical for further elucidating the mechanism of cAMP signaling. To date no EPAC-specific antagonists and agonist, as well as isoform-specific agonists have been reported, and developing EPAC-specific pharmacological probes to determine the physiological functions that EPAC play in the overall cAMP-mediated signaling remains a major challenge within the research field. Furthermore, identified regulators of EPAC may lead to new mechanism-based therapeutic strategies specifically targeting the EPAC / cAMP-signaling components as EPAC has been implicated to play important roles in major human pathological conditions such as diabetes, heart disease, and cancer.
This qHTS will be used to screen the Molecular Libraries Small Molecule Repository (MLSMR) as a concentration-titration series using the NCGC unique quantitative screening (qHTS) platform to find activators for EPAC2. In addition, this assay will also be used as a counterscreen for the EPAC1 qHTS. This fluorescent based assay is developed and validated for EPAC2 that measures exchange using EPAC effector Rap1 complex with BODIPY-GDP, a GDP analog with a tethered fluorophores. Activators are identified by monitoring the change in fluorescence signal as the exchanged free BODIPY-GDP has a reduced fluorescence compared to Rap1-bound BODIPY-GDP. […] in signal (activation) is the desired outcome for the EPAC2 agonist while no activity in this assay is desired for the EPAC1 agonist counterscreen.
[1] de Rooij, J., Zwartkruis, F. J., Verheijen, M. H., Cool, R. H., Nijman, S. M., Wittinghofer, A., and Bos, J.L. (1998) Nature 396, 474-477
[2] Kawasaki, H., Springett, G. M., Mochizuki, N., Toki, S., Nakaya, M., Matsuda, M., Housman, D. E., and Graybiel, A. M. (1998) Science 282, 2275-2279
NIH Chemical Genomics Center [NCGC]
NIH Molecular Libraries Probe Centers Network [MLPCN]
Assay Submitter (PI): Xiaodong Cheng, The University of Texas, Medical Branch
Briefly, three uL of reagents (100 nM EPAC2, 250 nM RAP1B-BODIPY-GDP, 50 uM GDP) were dispensed into a 1536-well Greiner black solid-bottom medium binding assay plate. Controls and test compounds (23 nL) were transferred to the plate via a Kalypsys pin tool equipped with a 1536-pin array. The plates were centrifuged at 1,000 rpm for 15 seconds followed by 5 minute incubation at room temperature. The assay plates were read at 5 minute intervals for 30 minutes in the ViewLux plate reader using 480nm excitation and 540nm emission filters. The results were normalized to the agonist positive control of 6.5 mM cAMP.
In the case of `CN(C)S(=O)(=O)N1CCc2ccc(NC(=O)c3ccc(C(F)(F)F)cc3)cc2C1`, the Potency is reported as inconclusive: 89.1 µM [activator, partial curve]. `C#CCOCCOCCOCCNc1nc(N2CCOCC2)nc(N2CCN(C(=O)[C@H](CCCN=C(N)N)n3cc(C(N)[C@@H](C)CC)nn3)CC2)n1` (stereo not given in full) was tested, and the “activation” value was inactive: 5.41%. With `O=S(=O)(c1ccc(Cl)nc1)N1CCc2ccccc21` the “activation” value was inactive: 4.55%. For `Cc1ccc(/C=C/C(=O)c2ccc(N3CCOCC3)cc2)s1`, the Potency was inconclusive: 79.4 µM [activator, partial curve]. For `Cc1ccc2nc(C3CCCCC3)c(Cc3ccsc3)n2c1`, the “activation” value was inactive: 17%. In the case of `Cn1c(-c2ccc(C=O)s2)nc2c3ccccc3c3ccccc3c21`, the Potency is reported as inconclusive: 112 µM [activator, single point]. For `CC(=O)Nc1ccc(C(=O)Nc2cccc(S(=O)(=O)N(C)c3ccccc3)c2)cc1`, the Potency was inconclusive: 100 µM [activator, partial curve]. `CCCCCn1c(=O)[nH]c2cc(C(=O)NCCCN(CC)CC)ccc2c1=O` was tested, and the “activation” value was inactive: -3.3%. For `CC1=C(C(=O)OC(C)C)C2(O)C(=O)c3ccccc3C2(O)N1` (stereo not given), the “activation” value was inactive: 2.49%. With `CCCCOc1cccc(C(=O)NC(=S)Nc2ccc(Cl)c(C(=O)O)c2)c1` the “activation” value was inactive: 7.46%. For `Cc1cc(C)n(CC(=O)n2c3ccccc3c3ccccc32)n1`, the Potency was inconclusive: 6.31 µM [activator, partial curve]. In the case of `CN(C)c1ccc(-c2sc(Nc3ccccc3)n[n+]2-c2ccc(F)cc2)cc1`, the “activation” value is reported as inactive: 16.3%. For `CC(C)C[C@H]1CN(CCCC[C@H]2CNC(=O)C(=O)N2CCc2ccccc2)C(=O)C(=O)N1CCC1CCCCC1`, the “activation” value was inactive: 0.0985%. `CCc1ccc(S(=O)(=O)NCCc2cn3ccccc3n2)s1` was tested, and the Potency was inconclusive: 10 µM [activator, full curve, poor fit]. `COC(=O)Cn1cc(C(=O)OC)cc(Br)c1=O` was tested, and the activation was inconclusive: 40.8% [activator] [at 15.6 µM, 100% = 6.5 mM cAMP response]. `COc1ccc(NC(=S)N(CCCN2CCOCC2)C(C)c2cc3cccc(OC)c3o2)cc1` (stereo not given) was tested, and the “activation” value was inactive: 9.93%. With `Cn1cccc1/C=C1\SC(=S)N(NC(=O)c2ccc(F)cc2)C1=O` the Potency was inconclusive: 100 µM [activator, partial curve]. With `COc1ccccc1CNC(=O)Cn1nnnc1CN(C)C(C)C` the “activation” value was inactive: 3.22%. `Cc1cc(C)c(NC(=O)C(=O)NCc2ccco2)c(C)c1` was tested, and the Potency was inconclusive: 50.1 µM [activator, single point]. With `Cc1ccc(-c2nc3c4ccccc4ccn3c2CN2CCCCC2)cc1` the Potency was inconclusive: 89.1 µM [activator, partial curve].
